Laboratory results: PubChem BioAssay AID652259 (Drosophila RNAi Screening Center, 2013)
Aim: 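Knock-downs that push a Wingless-driven reporter up or down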 (primary screen). Cell system: Drosophila clone 8 imaginal disc epithelial cells. Reagent: long dsRNA against Drosophila genes. Challenge: pathway stimulated by co-transfected Wingless expression plasmid. Measured: 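Firefly luciferase from a tcf-site Wingless reporter, measured alongside co-transfected Renilla luciferase that tracks transfection; pathway stimulated by a Wingless plasmid; the firefly-to-Renilla ratio is not deposited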. Direction: firefly reporter light: higher = more Wg reporter light, before normalisation; Renilla control light: higher = more transfected or surviving cells. Call rule: 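a knock-down is a candidate when at least two out of four statistical tests show it departing from its plate mean; one test alone signals a weak candidate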. Calls: active = candidate regulator (raises or lowers reporter); inactive = not a candidate.
The screen tested about 22,000 reagents; below is a random part of those that have a named target and a result. In the full data, 233 (1.1%) were called active. 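Light values are raw, unnormalised plate reads; the ratio scores behind the reporter calls were not deposited.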 A plus sign joins genes that one reagent is predicted to hit. The record does not give: the amount of reagent, the time to read-out, the dose of the treatment.

target,dsRNA,"reporter change call, replicate 1","firefly reporter light, replicate 1","firefly reporter light, replicate 2","Renilla control light, replicate 1","Renilla control light, replicate 2",Outcome
CG31974,DRSC00522,,2890,6022,1047,2128,inactive
Ide,DRSC11867,,4341,,1794,,inactive
Tnks,DRSC14154,,11842,,10501,,inactive
ix,DRSC06325,,5820,,1783,,inactive
EloB,DRSC16663,,19573,,4762,,inactive
Prip,DRSC07044,,9180,,2656,,inactive
CG8300,DRSC18426,Wg reporter activity raised,4357,13112,395,1088,active
CG31908,DRSC21864,,6.04e5,6.12e5,1.64e5,1.72e5,inactive
CG3652,DRSC00624,,3484,8784,1140,3634,inactive
CG17195,DRSC15188,,12456,,11571,,inactive
Cyp12c1,DRSC11125,,3035,,1345,,inactive
Dh44-R2,DRSC06141,,6842,,2603,,inactive
Dh44-R2,DRSC06281,,9152,,2272,,inactive
ldbr,DRSC10933,,5361,,2218,,inactive
Hsp67Bc,DRSC11193,,4816,,1824,,inactive
peng,DRSC20583,,23990,,10827,,inactive
CG31788,DRSC01630,,27890,,12441,,inactive
SF2,DRSC16845,Wg reporter activity lowered,5367,,3684,,active
CG4377,DRSC04467,,14445,,3851,,inactive
CG17233,DRSC10259,,7863,,2074,,inactive
CG33278,DRSC10336,,2356,3968,1696,2781,inactive
CG8326,DRSC20103,,2363,7088,924,2869,inactive
Map60,DRSC07464,,13568,,3953,,inactive
mAChR-A,DRSC04702,,4586,9941,951,2787,inactive
Klc,DRSC11203,,4676,,1709,,inactive
CG13454,DRSC10001,,3892,,992,,inactive
CG13042,DRSC09923,,10362,,3768,,inactive
CG13376,DRSC17901,,31809,,18164,,inactive
DnaJ-H,DRSC03273,,3229,5328,1139,2341,inactive
Tmhs,DRSC08231,,14563,,5858,,inactive
fred,DRSC00349,,3493,11627,1526,3113,inactive
fred,DRSC00599,,3885,10835,1584,4281,inactive
fred,DRSC00601,,2164,4576,1032,1859,inactive
fred,DRSC00602,,2772,8129,1235,2976,inactive
fred,DRSC21906,,5.99e5,4.45e5,2.23e5,2.12e5,inactive
CG11858,DRSC14412,,18380,6.93e5,20064,3.06e5,inactive
Cpr65Au,DRSC22738,,3.97e5,3.80e5,1.62e5,92402,inactive
CG32320,DRSC21514,,7.56e5,7.49e5,3.86e5,2.92e5,inactive
pps,DRSC16057,,18576,,1857,,inactive
CG42245 + MEP-1,DRSC07993,,4051,,1842,,inactive
CG42245 + MEP-1,DRSC08274,Wg reporter activity lowered,26288,,11873,,inactive
CG42245 + MEP-1,DRSC21460,,9.32e5,7.62e5,2.52e5,1.52e5,inactive
Ir7c,DRSC18007,,18037,,9180,,inactive
RyR,DRSC07543,,2648,5398,652,2259,inactive
stg,DRSC17071,Wg reporter activity lowered,1306,882,1194,295,active
pad,DRSC14227,,18935,,3769,,inactive
DCP1,DRSC04091,,11478,,3650,,inactive
Cda5,DRSC00003,,27677,,16308,,inactive
Cda5,DRSC00529,,2422,6992,1105,2873,inactive
Cda5,DRSC00532,,2813,8089,1159,3296,inactive
Cda5,DRSC21330,,4.91e5,3.54e5,5.40e5,1.71e5,inactive
